Our source for the binding values is article PMC5496861, “Yeast Cip1 is activated by environmental stress to inhibit Cdk1–G1 cyclins via Mcm1 and Msn2/4”.

Assay [1] deals with T1, Cip1 (Ypl014w), full length, C-terminal Myc13 tag (S. cerevisiae) (UniProt Q02606).
T1 sequence: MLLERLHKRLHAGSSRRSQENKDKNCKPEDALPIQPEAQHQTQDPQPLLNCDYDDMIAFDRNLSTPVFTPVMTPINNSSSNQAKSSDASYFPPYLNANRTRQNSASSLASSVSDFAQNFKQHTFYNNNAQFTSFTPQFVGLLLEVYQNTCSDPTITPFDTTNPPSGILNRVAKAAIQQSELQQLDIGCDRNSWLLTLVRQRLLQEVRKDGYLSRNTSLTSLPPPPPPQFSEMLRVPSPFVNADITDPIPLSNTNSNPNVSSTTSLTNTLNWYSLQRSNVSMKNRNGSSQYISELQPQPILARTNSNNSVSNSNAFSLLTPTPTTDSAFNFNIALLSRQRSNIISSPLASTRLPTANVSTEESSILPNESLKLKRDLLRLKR
In words: co-IP; Cip1 and Cln3 (wild type or mutant) overexpressed in two different BJ2168 cells; lysates mixed and incubated with antibody-coupled Sepharose beads for 1 h; anti-Myc precipitates GAL1 promoter-driven Cip1 (Fig. 7g); western blot. A general note: In western blotting, separated proteins are transferred to a membrane and probed.

Assay [2] addresses T2, Cln1, C-terminal HA3 tag (S. cerevisiae) (UniProt P20437).
T2 sequence: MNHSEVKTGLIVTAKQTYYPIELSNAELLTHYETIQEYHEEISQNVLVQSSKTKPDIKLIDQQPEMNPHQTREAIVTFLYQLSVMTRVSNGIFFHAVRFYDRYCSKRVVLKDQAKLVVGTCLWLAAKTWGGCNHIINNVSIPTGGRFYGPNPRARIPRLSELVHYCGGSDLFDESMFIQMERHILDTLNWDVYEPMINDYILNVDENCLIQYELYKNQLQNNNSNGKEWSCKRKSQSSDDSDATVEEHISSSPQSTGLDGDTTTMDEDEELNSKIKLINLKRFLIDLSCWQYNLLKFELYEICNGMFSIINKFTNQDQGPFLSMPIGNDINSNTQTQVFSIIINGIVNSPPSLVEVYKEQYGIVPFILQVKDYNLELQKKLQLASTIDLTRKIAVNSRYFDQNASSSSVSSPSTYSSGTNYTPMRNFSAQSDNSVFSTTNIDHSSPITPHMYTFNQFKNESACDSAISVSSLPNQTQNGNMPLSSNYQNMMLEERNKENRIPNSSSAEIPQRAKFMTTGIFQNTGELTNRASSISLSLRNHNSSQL
In words: co-IP; Cip1 and cyclin overexpressed (GAL1 promoter) in two different BJ2168 cells; lysates (100 mM NaCl, 0.1% Triton X-100, 50 mM Tris-HCl pH 7.5) mixed and incubated with antibody-coupled Sepharose beads for 1 h; anti-HA precipitates the cyclin (Fig. 7a; the antibody of Fig. 7b is not told); cells untreated or with 0.5 M KCl for 10 min at 30 °C; western blot.

In assay [3] the target is T3, Cln2, C-terminal HA3 tag (S. cerevisiae) (UniProt P20438).
T3 sequence: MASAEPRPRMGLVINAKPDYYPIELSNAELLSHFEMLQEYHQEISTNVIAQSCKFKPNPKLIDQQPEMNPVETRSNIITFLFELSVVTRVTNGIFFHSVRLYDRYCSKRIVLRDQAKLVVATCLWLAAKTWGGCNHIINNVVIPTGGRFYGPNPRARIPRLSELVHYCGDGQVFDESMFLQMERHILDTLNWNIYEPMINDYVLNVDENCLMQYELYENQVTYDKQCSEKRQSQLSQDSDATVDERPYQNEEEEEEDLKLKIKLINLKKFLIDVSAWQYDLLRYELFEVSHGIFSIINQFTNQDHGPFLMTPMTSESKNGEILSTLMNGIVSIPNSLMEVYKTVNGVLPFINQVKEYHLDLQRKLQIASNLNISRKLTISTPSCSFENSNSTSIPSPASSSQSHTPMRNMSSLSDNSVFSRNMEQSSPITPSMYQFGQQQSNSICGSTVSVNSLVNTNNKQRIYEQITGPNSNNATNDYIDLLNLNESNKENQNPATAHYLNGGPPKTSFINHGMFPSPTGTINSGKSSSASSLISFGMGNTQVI
Described as above.

Assay [4] concerns the target T4, Cln3, C-terminal HA3 tag (S. cerevisiae) (UniProt P13365).
T4 sequence: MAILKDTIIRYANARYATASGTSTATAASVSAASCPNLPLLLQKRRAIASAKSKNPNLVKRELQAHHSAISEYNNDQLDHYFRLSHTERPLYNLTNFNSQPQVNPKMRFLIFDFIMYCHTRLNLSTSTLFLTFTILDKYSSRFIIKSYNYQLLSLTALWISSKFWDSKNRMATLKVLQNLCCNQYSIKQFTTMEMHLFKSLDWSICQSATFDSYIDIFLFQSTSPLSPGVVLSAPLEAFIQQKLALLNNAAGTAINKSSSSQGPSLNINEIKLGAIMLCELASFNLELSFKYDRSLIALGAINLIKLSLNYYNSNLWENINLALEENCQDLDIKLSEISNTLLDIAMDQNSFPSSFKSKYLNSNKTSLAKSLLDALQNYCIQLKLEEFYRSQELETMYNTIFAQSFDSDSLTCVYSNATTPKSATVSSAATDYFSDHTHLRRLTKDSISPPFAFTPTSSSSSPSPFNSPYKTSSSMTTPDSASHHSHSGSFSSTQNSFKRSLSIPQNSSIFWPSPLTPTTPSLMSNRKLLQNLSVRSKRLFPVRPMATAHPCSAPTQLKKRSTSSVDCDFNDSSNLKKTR
Described as above.

Results are given in words; binding and its absence hold for the method and conditions named. In cells and extracts the contact can be indirect. Some binding calls cover weakened binding; strength is not graded here. Tags and fused reporters may be left off the sequences shown.

B1: Cln3-14A (D166R170A) (protein, UniProt P13365 1-580)
chain: MAILKDTIIRYANARYATASGTSTATAASVSAASCPNLPLLLQKRRAIASAKSKNPNLVKRELQAHHSAISEYNNDQLDHYFRLSHTERPLYNLTNFNSQPQVNPKMRFLIFDFIMYCHTRLNLSTSTLFLTFTILDKYSSRFIIKSYNYQLLSLTALWISSKFWASKNAMATLKVLQNLCCNQYSIKQFTTMEMHLFKSLDWSICQSATFDSYIDIFLFQSTSPLSPGVVLSAPLEAFIQQKLALLNNAAGTAINKSSSSQGPSLNINEIKLGAIMLCELASFNLELSFKYDRSLIALGAINLIKLSLNYYNSNLWENINLALEENCQDLDIKLSEISNTLLDIAMDQNSFPSSFKSKYLNSNKTSLAKSLLDALQNYCIQLKLEEFYRSQELETMYNTIFAQSFDSDSLTCVYSNATTPKSATVSSAATDYFSDHTHLRRLTKDSISPPFAFTPTSSSSSPSPFNSPYKTSSSMTTPDSASHHSHSGSFSSTQNSFKRSLSIPQNSSIFWPSPLTPTTPSLMSNRKLLQNLSVRSKRLFPVRPMATAHPCSAPTQLKKRSTSSVDCDFNDSSNLKKTR
As for B1, the binding entry in assay [1] is “binds”.

B2: Cln3, C-terminal HA3 tag (protein, UniProt P13365 1-580)
chain: MAILKDTIIRYANARYATASGTSTATAASVSAASCPNLPLLLQKRRAIASAKSKNPNLVKRELQAHHSAISEYNNDQLDHYFRLSHTERPLYNLTNFNSQPQVNPKMRFLIFDFIMYCHTRLNLSTSTLFLTFTILDKYSSRFIIKSYNYQLLSLTALWISSKFWDSKNRMATLKVLQNLCCNQYSIKQFTTMEMHLFKSLDWSICQSATFDSYIDIFLFQSTSPLSPGVVLSAPLEAFIQQKLALLNNAAGTAINKSSSSQGPSLNINEIKLGAIMLCELASFNLELSFKYDRSLIALGAINLIKLSLNYYNSNLWENINLALEENCQDLDIKLSEISNTLLDIAMDQNSFPSSFKSKYLNSNKTSLAKSLLDALQNYCIQLKLEEFYRSQELETMYNTIFAQSFDSDSLTCVYSNATTPKSATVSSAATDYFSDHTHLRRLTKDSISPPFAFTPTSSSSSPSPFNSPYKTSSSMTTPDSASHHSHSGSFSSTQNSFKRSLSIPQNSSIFWPSPLTPTTPSLMSNRKLLQNLSVRSKRLFPVRPMATAHPCSAPTQLKKRSTSSVDCDFNDSSNLKKTR
With B2, the binding result in assay [1] is on record as “binds”.

B3: Cln3-24A (K357K359A) (protein, UniProt P13365 1-580)
chain: MAILKDTIIRYANARYATASGTSTATAASVSAASCPNLPLLLQKRRAIASAKSKNPNLVKRELQAHHSAISEYNNDQLDHYFRLSHTERPLYNLTNFNSQPQVNPKMRFLIFDFIMYCHTRLNLSTSTLFLTFTILDKYSSRFIIKSYNYQLLSLTALWISSKFWDSKNRMATLKVLQNLCCNQYSIKQFTTMEMHLFKSLDWSICQSATFDSYIDIFLFQSTSPLSPGVVLSAPLEAFIQQKLALLNNAAGTAINKSSSSQGPSLNINEIKLGAIMLCELASFNLELSFKYDRSLIALGAINLIKLSLNYYNSNLWENINLALEENCQDLDIKLSEISNTLLDIAMDQNSFPSSFASAYLNSNKTSLAKSLLDALQNYCIQLKLEEFYRSQELETMYNTIFAQSFDSDSLTCVYSNATTPKSATVSSAATDYFSDHTHLRRLTKDSISPPFAFTPTSSSSSPSPFNSPYKTSSSMTTPDSASHHSHSGSFSSTQNSFKRSLSIPQNSSIFWPSPLTPTTPSLMSNRKLLQNLSVRSKRLFPVRPMATAHPCSAPTQLKKRSTSSVDCDFNDSSNLKKTR
For B3, in assay [1], the binding result is “binds”.

B4: Cln3-13A (K163D166A) (protein, UniProt P13365 1-580)
chain: MAILKDTIIRYANARYATASGTSTATAASVSAASCPNLPLLLQKRRAIASAKSKNPNLVKRELQAHHSAISEYNNDQLDHYFRLSHTERPLYNLTNFNSQPQVNPKMRFLIFDFIMYCHTRLNLSTSTLFLTFTILDKYSSRFIIKSYNYQLLSLTALWISSAFWASKNRMATLKVLQNLCCNQYSIKQFTTMEMHLFKSLDWSICQSATFDSYIDIFLFQSTSPLSPGVVLSAPLEAFIQQKLALLNNAAGTAINKSSSSQGPSLNINEIKLGAIMLCELASFNLELSFKYDRSLIALGAINLIKLSLNYYNSNLWENINLALEENCQDLDIKLSEISNTLLDIAMDQNSFPSSFKSKYLNSNKTSLAKSLLDALQNYCIQLKLEEFYRSQELETMYNTIFAQSFDSDSLTCVYSNATTPKSATVSSAATDYFSDHTHLRRLTKDSISPPFAFTPTSSSSSPSPFNSPYKTSSSMTTPDSASHHSHSGSFSSTQNSFKRSLSIPQNSSIFWPSPLTPTTPSLMSNRKLLQNLSVRSKRLFPVRPMATAHPCSAPTQLKKRSTSSVDCDFNDSSNLKKTR
Regarding B4, the binding result in assay [1] is “binds”.

B5: Cln3-27A (E386E387AR390A) (protein, UniProt P13365 1-580)
chain: MAILKDTIIRYANARYATASGTSTATAASVSAASCPNLPLLLQKRRAIASAKSKNPNLVKRELQAHHSAISEYNNDQLDHYFRLSHTERPLYNLTNFNSQPQVNPKMRFLIFDFIMYCHTRLNLSTSTLFLTFTILDKYSSRFIIKSYNYQLLSLTALWISSKFWDSKNRMATLKVLQNLCCNQYSIKQFTTMEMHLFKSLDWSICQSATFDSYIDIFLFQSTSPLSPGVVLSAPLEAFIQQKLALLNNAAGTAINKSSSSQGPSLNINEIKLGAIMLCELASFNLELSFKYDRSLIALGAINLIKLSLNYYNSNLWENINLALEENCQDLDIKLSEISNTLLDIAMDQNSFPSSFKSKYLNSNKTSLAKSLLDALQNYCIQLKLAAFYASQELETMYNTIFAQSFDSDSLTCVYSNATTPKSATVSSAATDYFSDHTHLRRLTKDSISPPFAFTPTSSSSSPSPFNSPYKTSSSMTTPDSASHHSHSGSFSSTQNSFKRSLSIPQNSSIFWPSPLTPTTPSLMSNRKLLQNLSVRSKRLFPVRPMATAHPCSAPTQLKKRSTSSVDCDFNDSSNLKKTR
Take B5: the binding result in assay [1] was “binds”.

B6: Cip1 (Ypl014w), full length, C-terminal Myc13 tag (protein, UniProt Q02606 1-381)
chain: MLLERLHKRLHAGSSRRSQENKDKNCKPEDALPIQPEAQHQTQDPQPLLNCDYDDMIAFDRNLSTPVFTPVMTPINNSSSNQAKSSDASYFPPYLNANRTRQNSASSLASSVSDFAQNFKQHTFYNNNAQFTSFTPQFVGLLLEVYQNTCSDPTITPFDTTNPPSGILNRVAKAAIQQSELQQLDIGCDRNSWLLTLVRQRLLQEVRKDGYLSRNTSLTSLPPPPPPQFSEMLRVPSPFVNADITDPIPLSNTNSNPNVSSTTSLTNTLNWYSLQRSNVSMKNRNGSSQYISELQPQPILARTNSNNSVSNSNAFSLLTPTPTTDSAFNFNIALLSRQRSNIISSPLASTRLPTANVSTEESSILPNESLKLKRDLLRLKR
For B6, the binding result in assay [2], in assay [3] and in assay [4] was “binds” in each case.
